Results on one substance are retold here after US20240043533A1.

Amino acid sequences for entries named in this document (tags omitted). A change or cut given only in a name is not applied to a line headed by its entry.
UniProt P02751: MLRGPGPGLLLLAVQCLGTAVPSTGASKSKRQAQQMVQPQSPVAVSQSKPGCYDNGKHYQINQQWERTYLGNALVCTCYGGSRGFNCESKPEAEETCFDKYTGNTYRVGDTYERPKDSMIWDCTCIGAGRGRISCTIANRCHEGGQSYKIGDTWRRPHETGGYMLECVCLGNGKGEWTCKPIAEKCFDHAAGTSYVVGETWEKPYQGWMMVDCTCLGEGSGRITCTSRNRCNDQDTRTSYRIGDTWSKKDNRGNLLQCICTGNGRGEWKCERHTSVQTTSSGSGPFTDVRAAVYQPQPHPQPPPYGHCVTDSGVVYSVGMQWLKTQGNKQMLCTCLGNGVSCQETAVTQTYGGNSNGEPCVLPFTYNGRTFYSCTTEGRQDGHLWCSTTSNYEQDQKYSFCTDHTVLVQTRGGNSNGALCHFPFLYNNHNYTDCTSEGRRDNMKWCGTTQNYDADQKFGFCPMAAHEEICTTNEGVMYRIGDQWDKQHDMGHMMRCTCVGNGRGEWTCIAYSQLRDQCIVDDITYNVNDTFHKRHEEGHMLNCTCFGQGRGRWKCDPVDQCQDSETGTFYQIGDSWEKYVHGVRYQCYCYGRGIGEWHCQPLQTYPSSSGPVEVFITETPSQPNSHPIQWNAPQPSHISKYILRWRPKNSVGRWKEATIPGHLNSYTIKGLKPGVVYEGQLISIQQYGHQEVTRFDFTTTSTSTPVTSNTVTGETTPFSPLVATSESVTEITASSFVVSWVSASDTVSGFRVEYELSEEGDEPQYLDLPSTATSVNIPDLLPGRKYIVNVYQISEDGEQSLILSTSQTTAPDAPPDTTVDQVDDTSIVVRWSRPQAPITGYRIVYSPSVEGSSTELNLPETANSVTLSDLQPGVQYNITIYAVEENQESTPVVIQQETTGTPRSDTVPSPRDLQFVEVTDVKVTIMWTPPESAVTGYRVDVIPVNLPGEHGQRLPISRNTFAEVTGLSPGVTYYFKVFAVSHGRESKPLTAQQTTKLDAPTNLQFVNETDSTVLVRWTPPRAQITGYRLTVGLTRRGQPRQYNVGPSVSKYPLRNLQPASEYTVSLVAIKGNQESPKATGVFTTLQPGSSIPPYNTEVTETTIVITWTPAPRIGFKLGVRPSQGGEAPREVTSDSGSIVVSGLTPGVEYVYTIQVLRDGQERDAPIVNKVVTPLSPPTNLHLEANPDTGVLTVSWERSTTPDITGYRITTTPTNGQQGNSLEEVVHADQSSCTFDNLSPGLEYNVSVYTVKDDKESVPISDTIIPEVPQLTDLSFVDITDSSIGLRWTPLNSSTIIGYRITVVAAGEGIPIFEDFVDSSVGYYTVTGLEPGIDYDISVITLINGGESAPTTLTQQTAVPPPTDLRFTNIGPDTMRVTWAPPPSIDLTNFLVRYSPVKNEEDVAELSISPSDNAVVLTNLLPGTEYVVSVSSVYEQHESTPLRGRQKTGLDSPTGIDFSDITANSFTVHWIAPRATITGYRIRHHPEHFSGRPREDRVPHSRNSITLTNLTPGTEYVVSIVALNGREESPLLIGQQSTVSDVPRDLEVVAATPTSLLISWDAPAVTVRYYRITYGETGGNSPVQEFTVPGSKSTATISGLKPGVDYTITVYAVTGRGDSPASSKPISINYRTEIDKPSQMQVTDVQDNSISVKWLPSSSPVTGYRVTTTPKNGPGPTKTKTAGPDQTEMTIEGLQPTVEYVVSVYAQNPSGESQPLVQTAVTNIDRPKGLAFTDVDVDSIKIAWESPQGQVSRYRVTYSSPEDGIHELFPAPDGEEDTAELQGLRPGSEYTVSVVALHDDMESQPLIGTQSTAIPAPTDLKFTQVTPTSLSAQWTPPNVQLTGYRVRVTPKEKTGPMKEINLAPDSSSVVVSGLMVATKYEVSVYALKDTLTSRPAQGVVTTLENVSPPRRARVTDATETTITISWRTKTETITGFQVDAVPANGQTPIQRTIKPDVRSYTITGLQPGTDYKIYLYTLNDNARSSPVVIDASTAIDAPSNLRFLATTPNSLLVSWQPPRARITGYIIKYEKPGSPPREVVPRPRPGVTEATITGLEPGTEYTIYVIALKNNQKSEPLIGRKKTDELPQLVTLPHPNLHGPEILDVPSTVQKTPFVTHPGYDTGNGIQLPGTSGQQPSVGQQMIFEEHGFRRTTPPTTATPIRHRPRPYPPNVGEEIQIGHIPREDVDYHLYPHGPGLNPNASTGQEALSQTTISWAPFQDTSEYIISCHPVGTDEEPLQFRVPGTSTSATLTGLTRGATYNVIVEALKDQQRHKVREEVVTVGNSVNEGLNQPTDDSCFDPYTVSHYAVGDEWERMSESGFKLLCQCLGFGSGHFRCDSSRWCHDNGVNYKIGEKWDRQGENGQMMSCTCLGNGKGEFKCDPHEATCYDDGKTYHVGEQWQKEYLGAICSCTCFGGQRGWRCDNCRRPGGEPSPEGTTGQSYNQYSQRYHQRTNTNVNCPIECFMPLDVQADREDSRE
UniProt Q8NHJ6: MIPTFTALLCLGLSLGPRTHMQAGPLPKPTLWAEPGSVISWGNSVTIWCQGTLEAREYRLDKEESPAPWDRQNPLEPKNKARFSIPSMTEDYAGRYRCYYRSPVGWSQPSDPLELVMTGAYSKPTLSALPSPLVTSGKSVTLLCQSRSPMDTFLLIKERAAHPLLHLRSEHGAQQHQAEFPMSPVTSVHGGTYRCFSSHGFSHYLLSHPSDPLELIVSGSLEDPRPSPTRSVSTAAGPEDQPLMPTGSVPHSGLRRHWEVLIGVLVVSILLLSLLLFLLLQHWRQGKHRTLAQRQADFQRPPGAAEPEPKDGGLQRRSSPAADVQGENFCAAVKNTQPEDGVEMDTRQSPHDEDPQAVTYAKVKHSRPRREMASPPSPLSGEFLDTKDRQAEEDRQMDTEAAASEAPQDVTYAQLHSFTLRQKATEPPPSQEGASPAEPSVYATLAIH

For this test, the target named is fibronectin endogenously produced by human cells (LX-2 hepatic stellate cells, Detroit 551 fibroblasts) (human) (UniProt P02751). Description: binding of ILT3ECD-Fc to LX-2 cells, wild type against fibronectin knock-out.

No constants are given. Whether binding was seen depends on the method and setting. Some binding calls cover weakened binding; strength is not graded here.

Regarding “ILT3ECD-Fc (human ILT3 extracellular domain fused to an immunoglobulin Fc region) (from UniProt Q8NHJ6 22-259) (Fc fusion)”, the binding result is given as “binds”.
